Test results reported in US20120277143A1.
These are yes or no findings as the source states them, for the method shown. Some entries that bind do so weakly or less than the wild type.

By UniProt entry, the sequences of proteins in these tests, tags left out. Where a name states a change or a piece, a line headed by the entry shows the natural chain unless it says otherwise. Chains listed by the source or under a name are the forms on record and can include a tag or linker.
cyno IL13 (Q0PW92, form named): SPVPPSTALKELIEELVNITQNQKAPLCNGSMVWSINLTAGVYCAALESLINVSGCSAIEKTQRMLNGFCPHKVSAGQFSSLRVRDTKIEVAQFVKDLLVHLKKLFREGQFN

Biological target: cyno IL13 (cynomolgus monkey) (UniProt Q0PW92)
Assay: not restated; complex with cyno IL13 crystallized

binding: binds
B1: IL13 binding protein 6G9 (designed binder)
chain: DLGKKLLEAARAGQDDEVRILMANGADVNARDSYGSTPLHLAAREGHLEIVEVLLKYGADVNAKDMIGDTPLHLAAYRGHLEIVEVLLKNGADVNASDITGETPLHLAAQIGHLEIVEVLLKYGADVNAQDKFGKTAFDISIDNGNEDLAEILQKLN
